Changes are numbered by the printed parent chain. Results are given in words; binding and its absence hold for the method and conditions named. In cells and extracts the contact can be indirect. Some results given as binding are weak or reduced against the parent protein; the word gives no strength.

Protein sequences, listed by entry. Tags and fused reporters are not part of them. Lines headed by an entry give the natural chain unless they say otherwise; changes in a name come on top.
UniProt O15105: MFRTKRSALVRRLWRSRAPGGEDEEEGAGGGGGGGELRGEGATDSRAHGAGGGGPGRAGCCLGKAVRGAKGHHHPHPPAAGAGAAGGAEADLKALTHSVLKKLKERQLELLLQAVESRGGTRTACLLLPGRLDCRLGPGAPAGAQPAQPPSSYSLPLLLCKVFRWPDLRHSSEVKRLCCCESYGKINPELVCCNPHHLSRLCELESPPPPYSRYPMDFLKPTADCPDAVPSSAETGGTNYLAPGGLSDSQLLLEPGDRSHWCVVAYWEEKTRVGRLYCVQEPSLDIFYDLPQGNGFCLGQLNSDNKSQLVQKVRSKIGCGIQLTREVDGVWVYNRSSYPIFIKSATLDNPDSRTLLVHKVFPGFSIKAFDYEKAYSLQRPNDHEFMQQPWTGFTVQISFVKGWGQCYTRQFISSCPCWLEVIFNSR
UniProt Q9HAU4: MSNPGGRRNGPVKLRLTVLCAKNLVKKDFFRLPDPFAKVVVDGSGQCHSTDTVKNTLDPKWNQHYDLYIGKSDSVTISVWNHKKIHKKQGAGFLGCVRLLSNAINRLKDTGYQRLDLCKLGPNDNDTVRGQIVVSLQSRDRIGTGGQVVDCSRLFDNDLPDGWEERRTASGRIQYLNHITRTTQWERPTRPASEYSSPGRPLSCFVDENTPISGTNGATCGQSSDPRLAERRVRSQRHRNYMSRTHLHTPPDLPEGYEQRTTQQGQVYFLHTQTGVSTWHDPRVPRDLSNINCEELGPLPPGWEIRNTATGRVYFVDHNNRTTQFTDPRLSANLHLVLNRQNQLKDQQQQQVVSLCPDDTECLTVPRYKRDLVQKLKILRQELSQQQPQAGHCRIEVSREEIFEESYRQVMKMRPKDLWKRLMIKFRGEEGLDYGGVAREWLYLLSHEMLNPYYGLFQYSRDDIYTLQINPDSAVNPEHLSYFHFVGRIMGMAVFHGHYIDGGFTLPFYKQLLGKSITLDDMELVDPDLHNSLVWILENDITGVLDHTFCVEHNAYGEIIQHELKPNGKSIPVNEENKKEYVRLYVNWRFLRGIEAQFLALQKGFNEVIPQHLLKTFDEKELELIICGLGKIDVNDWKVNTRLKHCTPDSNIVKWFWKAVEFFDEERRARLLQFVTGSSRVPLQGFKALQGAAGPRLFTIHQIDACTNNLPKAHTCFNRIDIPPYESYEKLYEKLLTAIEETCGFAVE

Assay [1] deals with T1, OTUD1-CA mutant (experiment of Supplementary Fig. 4b) (UniProt Q5VV17).
T1 sequence: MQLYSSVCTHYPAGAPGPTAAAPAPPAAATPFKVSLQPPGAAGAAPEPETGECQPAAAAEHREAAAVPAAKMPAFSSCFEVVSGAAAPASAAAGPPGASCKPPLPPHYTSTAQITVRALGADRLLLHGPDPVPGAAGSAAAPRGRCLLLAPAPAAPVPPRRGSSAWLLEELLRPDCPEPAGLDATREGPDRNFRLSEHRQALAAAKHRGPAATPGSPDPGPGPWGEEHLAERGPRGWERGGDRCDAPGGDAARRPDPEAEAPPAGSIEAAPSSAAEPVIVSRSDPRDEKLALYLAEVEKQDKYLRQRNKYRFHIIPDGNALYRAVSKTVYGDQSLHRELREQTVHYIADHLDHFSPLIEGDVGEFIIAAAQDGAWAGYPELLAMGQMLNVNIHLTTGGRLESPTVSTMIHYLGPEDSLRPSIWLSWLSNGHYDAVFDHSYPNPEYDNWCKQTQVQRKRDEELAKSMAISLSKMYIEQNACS
Kind of assay: co-IP; Supplementary Fig. 4b; SMAD7 associated with OTUD1-wt or OTUD1-CA examined for ubiquitination; details not shown.

Assay [2] has as its target T2, OTUD1-wt (experiment of Supplementary Fig. 4b) (UniProt Q5VV17).
T2 sequence: T1 sequence with A320C
The description is as above.

The target of the next assay is Flag-SMAD7 (UniProt O15105). Kind of assay: co-IP; anti-Flag immunoprecipitates from HEK293T cells transfected with Flag-SMAD7-wt or K220R, with or without depletion of OTUD1; immunoblot for SMURF2. (A western blot detects proteins with antibodies after separation by electrophoresis.)
A further assay has as its target Flag-SMAD7 K220R (UniProt O15105). The description is as above.

As for “SMAD7 (experiment of Supplementary Fig. 4b) (from UniProt O15105 1-426)”, the binding entry in assay [1] and in assay [2] was “binds” in each case.
In the case of “SMURF2 (from UniProt Q9HAU4 1-748) (enzyme)”, the binding entry in the assay with Flag-SMAD7 and with Flag-SMAD7 K220R was “binds” throughout.
